Reference: paper doi:10.1101/2020.10.15.340570

Target: GST::MEG-3_(Cterm) fusion with mutations in the HMG-like domain (C. elegans)
Experiment: pull-down

B1: MBP::PGL-1 (protein, UniProt Q9TZQ3 1-730)
chain: MEANKREIVDFGGLRSYFFPNLAHYITKNDEELFNNTSQANKLAAFVLGASKDAPGDEDILEMILPNDANAAVIAAGMDVCLLLGDKFRPKFDAAAEKLSGLGHAHDLVSVIDDDKKLGMLARKAKLKKTEDAKILQALLKVIAIDDAAEKFVELTELVSQLDLDFDVYVLTKILGLISEETSDEVDIIRDNVVNAFDSCKPLLKQLMLDGPKSEPADPFISLLMDPLEESVGKVVNHIAQLFEEASKNEGDESLVLRSQLGYQLFFLIVRSLADGKREVSKKILSGIPTSVRAEVFPGLQRSVYKSAVFLGNHIIQVLLGSKKSFEDWDVVGVAKDLESAWKRRAIAELIKKFQVSILEQCFDKPVPLIPQSPLNNDAVIDNVNKALQFALWLTEFYGSENETEALGELRFLDSTSKNLLVDSFKKFVQGINSKTHVTRIVESLEKCCLSDTPSGRKSNVQPSTSQQQDSAYTKEEMTTVHNTYSVNTKAQVLNGLSDTNSSGLLVDSKDSLSLQEISCDEVDSSTLLSSSRNIGEGVTVKAVDPVPEKVNDAQQQQTVNEIEMASDANQDTSSSASPEVAPSFSTDGWDSPTKSVALPPGMQQIDEEETTVADKDSTPQPQARAETAWGSGDATPMPLPAPTNQYKVSGFGEAKVAKGFGQFAPTSSAYGGGGGRGGYGGGDRGGRGGYGGDRGGRGGYGGGDRGGRGGYGGDRGRGGYGGRGGRGGF
In the case of B1, the binding is reported as “binds”.

Results are given in words; binding and its absence hold for the method and conditions named. Binding seen in cells or lysates may run through a third protein. A result given as binding can be weak or reduced; the word gives no strength. Sequences can lack the tags named with a protein.
